Laboratory results reported in article PMC4843017.
Results are given in words; binding and its absence hold for the method and conditions named. Binding calls can cover weak binding; strength is not graded here.

Biological target: tubulin/RB3 complex
Test: SEC; analytical size-exclusion migration shift assay; 15 μM each, 1 h on ice; Superdex 200 5/150 GL; 20 mM Hepes pH 7.5, 150 mM NaCl, 5% glycerol, 2 mM DTE; both purified

binding: binds
B1: SKAP^135–225 (domain or fragment, UniProt Q9Y448 135-225)
chain: VTKITKLRRENGQMKATDTATRRNVRKGYKPLSKQKSEEELKDKNQLLEAVNKQLHQKLTETQGELKDLTQKVELLEKFRDNCLAILESKG
